Reference: US5672710A, “Sulfides, sulfoxides and sulfones disubstituted with a tetrahydronaphthalenyl, chromanyl, thiochromanyl or tetrahydroquinolinyl and substituted phenyl or heteroaryl group, having retinoid-like biological activity” (priority 1995, dated 1997)
At least one structure is not confirmed: it was looked up by name or label, or the drawing left a doubt.

Target: T1, RARα (Homo sapiens, UniProt P10276)
T1 construct: expressed in transfected cells; host or cells: CV1
T1 sequence (P10276 1-462): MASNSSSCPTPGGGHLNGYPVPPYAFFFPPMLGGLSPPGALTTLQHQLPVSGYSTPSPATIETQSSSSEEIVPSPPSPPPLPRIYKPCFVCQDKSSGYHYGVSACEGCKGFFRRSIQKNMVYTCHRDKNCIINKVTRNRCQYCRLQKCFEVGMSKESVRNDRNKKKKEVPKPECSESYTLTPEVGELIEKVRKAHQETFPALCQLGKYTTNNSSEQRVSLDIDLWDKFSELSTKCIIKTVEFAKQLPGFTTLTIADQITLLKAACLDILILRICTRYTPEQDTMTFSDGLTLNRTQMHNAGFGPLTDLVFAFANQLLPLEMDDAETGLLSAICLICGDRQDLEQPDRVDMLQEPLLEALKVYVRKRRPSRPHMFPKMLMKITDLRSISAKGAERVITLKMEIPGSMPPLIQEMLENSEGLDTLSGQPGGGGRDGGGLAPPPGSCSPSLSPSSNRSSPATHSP
Test: Holoreceptor transactivation assay, RARα
Type: cell-based
Settings: CV1 cells, 36 hours; 0.00 = less than 20% as efficacious as all trans retinoic acid
Source text: A holoreceptor transactivation assay and a ligand binding assay which measure the ability of the compounds of the invention to bind to the several retinoid receptor subtypes, respectively, are described in published PCT Application No. WO W093/11755 (particularly on pages 30-33 and 37-41) published on Jun. 24, 1993, the specification of which is also incorporated herein by reference. A description of the holoreceptor transactivation assay is also provided below.
CV1 cells (5,000 cells/well) were transfected with an RAR reporter plasmid MTV-TREp-LUC (50 ng) along with one of the […] expression vectors (10 ng) in an automated 96-well format by the calcium phosphate procedure of Heyman et al. Cell 68, 397-406. (8). For RXRα and RXR.GAMMA. transactivation assays, an RXR-responsive reporter plasmid CRBPII-tk-LUC (50 ng) along with the appropriate RXRexpression vectors (10 ng) was used substantially as described by Heyman et al. above, and Allegretto et al. J. Biol. Chem. 268, 26625-26633. For RXRβ transactivation assays, an RXR-responsive reporter plasmid CPRE-tk-LUC ([…]) along with RXRβ expression vector ([…]) was used as described in above. These reporters contain DRI elements from human CRBPII and certain DRI elements from promoter, respectively. […]

Structure (SMILES): CC1(C)CCC(C)(C)c2cc(Sc3ccc(C(=O)O)cc3)ccc21 [Compound 2]
- Holoreceptor Transactivation Assay EC50, RARα: 0.00 (0.0 in Table 2 indicates that the compound is less than 20% as active (efficacious) in this assay than all trans retinoic acid.)
